Experiment: Fabric cleaning: primary nonionic surfactant for bargain laundry detergent
Conditions: versus Bio-Soft N25-7; wash 90° F.

CCC=CCCCCCCCCOCCOCCOCCOCCOCCO (mixture of isomers) [A12-10]
ΔSRI, beef tallow (BT): 2.9 | ΔSRI, blood/ink/milk on cotton (EMPA 116): −0.8 | ΔSRI, blueberry on cotton (BC): −0.1 | ΔSRI, clay on cotton (CC): 0.2 | ΔSRI, cocoa on cotton (EMPA 112): 1.8 | ΔSRI, coffee on cotton (COFC): −0.4 | ΔSRI, dust sebum on cotton (DSC): −1.0 | ΔSRI, grass on cotton (GC): −1.7 | ΔSRI, make-up on cotton (EMPA 143): 0.4 | ΔSRI, red wine on cotton (RWC): −0.5 | ΔSRI, sebum tefo (ST): −0.6

CCC=CCCCCCCCCOCCOCCOCCOCCOCCOCCOCCO (mixture of isomers) [A12-13]
ΔSRI, beef tallow (BT): 2.6 | ΔSRI, blood/ink/milk on cotton (EMPA 116): −0.9 | ΔSRI, blueberry on cotton (BC): −0.8 | ΔSRI, clay on cotton (CC): 0.3 | ΔSRI, cocoa on cotton (EMPA 112): −0.3 | ΔSRI, coffee on cotton (COFC): 0.2 | ΔSRI, dust sebum on cotton (DSC): −0.3 | ΔSRI, grass on cotton (GC): −1.3 | ΔSRI, make-up on cotton (EMPA 143): −0.1 | ΔSRI, red wine on cotton (RWC): 0.6

CCC=CCCCCCCCCOCCOCCOCCOCCOCCOCCOCCOCCOCCO (mixture of isomers) [A12-21]
ΔSRI, beef tallow (BT): 4.5 | ΔSRI, blood/ink/milk on cotton (EMPA 116): −0.4 | ΔSRI, blueberry on cotton (BC): 0.0 | ΔSRI, clay on cotton (CC): 0.3 | ΔSRI, cocoa on cotton (EMPA 112): 1.0 | ΔSRI, coffee on cotton (COFC): 0.2 | ΔSRI, dust sebum on cotton (DSC): 0.1 | ΔSRI, grass on cotton (GC): −1.2 | ΔSRI, make-up on cotton (EMPA 143): 0.3 | ΔSRI, red wine on cotton (RWC): 0.2 | ΔSRI, sebum tefo (ST): 0.5

— patent publication US9708251B2, “Unsaturated fatty alcohol alkoxylates from natural oil metathesis” (Stepan Company, priority 2012, dated 2017)
